Assay results reported in PubChem BioAssay AID485349 (National Center for Advancing Translational Sciences (NCATS), 2010).
Screen size: about 320,000 compounds; about 620 (0.19%) were called active. The shares of active, inactive and inconclusive entries below differ from those in the screen. Calls follow the shape of the dose curve; as a rule, active = well fitted activation curve with a large enough effect; inconclusive = small, poorly fitted or top-dose-only effect; inactive = no such curve, though single readings can be large or run the other way. A potency beside an inconclusive call is a rough fit, not a confirmed value.

Assay: qHTS Assay for Identifying a Potential Treatment of Ataxia-Telangiectasia; also: nearly all actives have a fitted effect of over 45% in size
Conditions: […] A-T fibroblasts, KAP-1 phosphorylation AlphaLISA, neocarzinostatin DNA damage 30 min before lysis; series mostly up to 57.5 µM
Procedure, shortened: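 ATM-like activity read as KAP-1 phosphorylation via AlphaLISA donor/acceptor antibody pairs after lysis and 6 hr at 25C. Cells were ATM-null patient fibroblasts ([…], hTERT), dosed 60 min, then exposed to the DSB inducer NCS for 30 min.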
Potency is read from the fitted curve at half-maximal effect.

SMILES	Potency
CC1CN(C(=O)CN2C(=O)c3ccccc3S2(=O)=O)CC(C)O1 (centres undefined)	inconclusive: 11.2 µM [activator, partial curve]
CC1CN(c2nc3ccccc3cc2-c2ccccc2)CC(C)O1 (centres undefined)	inconclusive: 31.6 µM [activator, single point]
O=C(Nc1nc(-c2ccco2)c(-c2ccco2)s1)c1ccc(F)cc1F	inconclusive: 22.4 µM [activator, partial curve]
Cc1ccc(S(=O)(=O)CCC(=O)N(CCCN2CCOCC2)c2nc3ccccc3s2)cc1	inconclusive: 35.5 µM [activator, partial curve]
c1ccc(C2=NN(c3ccccc3)C(c3ccco3)C2)cc1 (centres undefined)	active: 15.8 µM
COc1ccccc1N1CCN(C(=O)c2cc(=O)c3c(C)cc(C)cc3o2)CC1	inconclusive: 3.16 µM [activator, full curve]
COc1ccc(C2/C=C\CN(C(=O)C3CCCC3)CC(=O)N2Cc2ccc(F)cc2)cc1 (centres undefined)	active: 14.1 µM
CCn1c(=O)cc(N2CCN(C(=O)c3ccco3)CC2)[nH]c1=O	inconclusive: 15.8 µM [activator, partial curve, poor fit]
COC(=O)N/N=C/c1ccccc1OCCOc1ccc(OC)cc1	inconclusive: 0.708 µM [activator, partial curve, poor fit]
COc1ccc(-c2cn(CC3CCCCC3)nn2)cc1	inactive
CCOC(=O)N1CCC(NC(=O)c2ccc3c(c2)sc2nc(-c4ccccc4)cn23)CC1	active: 20 µM
CCOC(=O)CNc1nc(C(C)(C)C)nc2c1nnn2Cc1ccccc1	inactive
O=C(NC1CCCCCC1)c1ccc(CS(=O)Cc2cccc(Cl)c2)o1 (centres undefined)	inconclusive: 8.91 µM [activator, single point]
Cc1nnnn1/C(=C\c1ccccc1)C(=O)OCC(=O)Nc1cccc(S(=O)(=O)N(C)C)c1	inconclusive: 28.2 µM [activator, single point]
Cc1cc(NCc2ccccc2)nc(-c2ccccc2O)n1	inconclusive: 39.8 µM [activator, single point]
CCOc1ccccc1CNC(=O)c1cn(C)c(=O)c2c1c1ccccc1n2C	inactive
COc1ccc2sc(-c3ccc(N(C)C)cc3)c(C#CCCO)c2c1	active: 25.1 µM
O=C(O)CC12CSc3[nH]c(=O)sc3C1c1ccccc1OC2=O (centres undefined)	inconclusive: 39.8 µM [activator, partial curve]
Cc1ccc(NC(=O)CN(C)CC(=O)NC2CCCc3ccccc32)cc1 (centres undefined)	inconclusive: 2.82 µM [activator, partial curve, poor fit]
COC(=O)c1cc(S(=O)(=O)NCC2CCN(CCc3cccs3)CC2)cn1C	inconclusive: 15.8 µM [activator, partial curve]
O=C(Cc1ccc(F)cc1)NC1CCCCCC1	inactive
CCOc1ccccc1CNc1ccc(O)cc1	inconclusive: 31.6 µM [activator, partial curve]
CC(C)C[C@H](NC(=O)c1[nH]cnc1C(=O)N[C@@H](Cc1ccccc1)C(=O)OC(C)(C)C)C(=O)OC(C)(C)C	inconclusive: 39.8 µM [activator, partial curve, poor fit]

4 of the compounds above, in markdown.

| SMILES | Potency |
| --- | --- |
| O=C(Nc1nc(-c2ccco2)c(-c2ccco2)s1)c1ccc(F)cc1F | inconclusive: 22.4 µM [activator, partial curve] |
| Cc1ccc(S(=O)(=O)CCC(=O)N(CCCN2CCOCC2)c2nc3ccccc3s2)cc1 | inconclusive: 35.5 µM [activator, partial curve] |
| c1ccc(C2=NN(c3ccccc3)C(c3ccco3)C2)cc1 (centres undefined) | active: 15.8 µM |
| COc1ccccc1N1CCN(C(=O)c2cc(=O)c3c(C)cc(C)cc3o2)CC1 | inconclusive: 3.16 µM [activator, full curve] |

Later entries:

SMILES	Potency
CCOC(=O)CN1C(c2ccc(O)cc2)Nc2ccc(Br)cc2C1c1ccccc1 (centres undefined)	inconclusive: 35.5 µM [activator, single point]
O=S(=O)(c1cc(C(F)(F)F)ccc1Cl)N1CCCCCC1	inconclusive: 25.1 µM [activator, partial curve]
Cc1c(C(=O)NCCc2ccccc2)oc2ccccc12	inactive
Cc1oc2ccc(OCc3ccc(Br)cc3)cc2c1C(=O)O	active: 3.55 µM
Nc1n[nH]c2c1C1(CCCCC1)Cc1ccccc1-2	inconclusive: 0.708 µM [activator, partial curve, poor fit]
CC(C)CNC(=O)CSc1n[nH]c(=O)n1CCc1ccccc1	inconclusive: 3.55 µM [activator, partial curve]
O=C(Nc1cc(Cl)ccc1N1CCOCC1)c1ccc(F)c(S(=O)(=O)N2CCOCC2)c1	inconclusive: 0.631 µM [activator, partial curve, poor fit]
O=C(NCCc1cccs1)C1CC(c2cccc(F)c2)=NO1 (centres undefined)	active: 39.8 µM
COc1ccccc1C(=O)OCC(=O)NC1CCCC1	inconclusive: 0.794 µM [activator, full curve, poor fit]
Cc1cccc(NC2SC(=O)NC2=O)c1 (centres undefined)	inconclusive: 3.16 µM [activator, partial curve]
CCN1C(=O)[C@H]2[C@@H](c3ccc(-c4ccc5c(c4)OCO5)c(OC)c3)N[C@@](CC(C)C)(C(=O)OC)[C@H]2C1=O	inconclusive: 4.47 µM [activator, full curve]
CCOC(=O)c1c(-c2ccccc2)oc2ccc(OCC(=O)NNC(=O)CCCC(=O)O)cc12	inconclusive: 12.6 µM [activator, partial curve, poor fit]
C[C@]12CS(=O)(=O)C[C@H]1SC(=S)N2c1ccccc1	inconclusive: 3.16 µM [activator, partial curve]
CC(C)c1ccc(NC(=S)NCCc2c[nH]c3ccccc23)cc1	inactive
COCCN(C(=S)Nc1ccccc1C)C(C)c1ccco1 (centres undefined)	active: 31.6 µM
O=C(O)c1cc(-c2ccco2)nc2ccccc12	inactive
CC(C)(C)C1CCC(C(=O)OCC(=O)c2ccc[nH]2)CC1 (centres undefined)	inconclusive: 25.1 µM [activator, single point]
COc1ccc(CCN(C)C(=O)c2ccc(S(=O)(=O)Nc3ccccc3C)cc2)cc1OC	inconclusive: 39.8 µM [activator, single point]
CCCc1c(C(=O)N/N=C(\C)c2ccc(O)cc2)nnn1-c1nonc1N	inconclusive: 39.8 µM [activator, single point]
COc1ccc(C(=O)C2CCCN(C(=O)CCc3scnc3C)C2)c(C)c1 (centres undefined)	inconclusive: 35.5 µM [activator, single point]
COc1ccccc1CC(=O)Nc1nc(-c2ccc(F)c(F)c2)cs1	inactive
O=C(O)C1CC=CCC1C(=O)Nc1ccc(N2CCN(Cc3ccccc3)CC2)cc1 (centres undefined)	inconclusive: 31.6 µM [activator, partial curve, poor fit]
Cc1cccc(NC(=O)Cn2nnc3sc4c(c3c2=O)CC(C)(C)OC4)c1	inconclusive: 31.6 µM [activator, single point]

SMILES	Potency
Cc1cc(N(C)C)ccc1N=Nc1ccc2ncccc2c1	inconclusive: 25.1 µM [activator, single point]
Cc1ccc(S(=O)(=O)N2CCOCC2)cc1C(=O)N(C)CCOc1ccc(Cl)cc1	active: 22.4 µM
O=C(Nn1c(C2CCC2)nc2ccccc2c1=O)C1CCC1	inconclusive: 7.08 µM [activator, single point]
O=S(=O)(O)c1ccc(N2N=C(c3ccccc3)CC2c2ccccc2)cc1 (centres undefined)	inconclusive: 31.6 µM [activator, single point]
O=Cc1[nH]c2ccccc2c1N(C(=O)CCl)c1ccc([N+](=O)[O-])cc1	inactive
Cc1ccc2nc3c(cc(C(=O)NCC4CCCO4)c(=N)n3CC3CCCO3)c(=O)n2c1 (centres undefined)	inactive
O=C(NCCN1C(=O)S/C(=C\c2cccc(Cl)c2Cl)C1=O)C1=COCCO1	inconclusive: 3.55 µM [activator, partial curve]
CC(=O)c1ccc(-c2ccc([C@H]3[C@H]4C=CC[C@@H](C)[C@@H]4C(=O)N3Cc3ccccc3)c(F)c2)cc1	inconclusive: 39.8 µM [activator, single point]
O=C(NCc1ccccc1)C1(CC2CC(c3ccccc3)=NO2)CCNCC1 (centres undefined)	inconclusive: 0.631 µM [activator, partial curve, poor fit]
Fc1ccc(-c2cc(C(F)(F)C(F)F)[nH]n2)cc1	inconclusive: 39.8 µM [activator, partial curve, poor fit]
COc1cc2c(cc1OC)C(C)N(C(=O)c1cc3c(s1)-c1c(C)cccc1OC3)CC2 (centres undefined)	inactive
CCC(=O)N(Cc1cc2c(C)cc(C)cc2[nH]c1=O)C1CCCCC1	inconclusive: 3.55 µM [activator, partial curve]
CC(C)CCn1c(-c2nonc2N)nc2ccccc21	inconclusive: 39.8 µM [activator, single point]
COc1ccccc1C1=NC(c2ccccc2)CN1c1ccccc1 (centres undefined)	active: 28.2 µM
CCN1CCN(CC(=O)Nc2ccc(C(C)=O)cc2)CC1	active: 4.47 µM
CCOC(=O)CCc1c(C)c2ccc3c(c2oc1=O)CN(CCCO)CO3	inconclusive: 39.8 µM [activator, single point]
CCn1cc(-c2cc(C(=O)O)c3ccccc3n2)cn1	inactive
Cc1nn(CCS(=O)(=O)c2ccc(Cl)cc2)c(C)c1Br	inconclusive: 2.82 µM [activator, partial curve]
O=C(CSc1c2c(nc3ccccc13)CCCC2)NCc1ccco1	inconclusive: 39.8 µM [activator, single point]
Cc1cccc(C(=O)OC(C)C(=O)N2CCc3ccccc3C2)c1C (centres undefined)	inactive
O=c1ccc2c(-c3ccccc3)c3ccc(O)cc3oc-2c1	inconclusive: 0.708 µM [activator, partial curve, poor fit]
CC1CCN(C(C)C(=O)Nc2ccccc2-c2ccccc2)CC1 (centres undefined)	inconclusive: 35.5 µM [activator, single point]
CCc1cc(C(=O)Nc2ccccc2N2CCOCC2)sc1C	inconclusive: 39.8 µM [activator, single point]
